Laboratory results reported in doi:10.1101/2021.02.10.429309.
No constants are given. Whether binding was seen depends on the method and setting. Binding seen in cells or lysates may run through a third protein. Here binding means that the protein was enriched with, or labelled near, the bait; the list need not be complete.

molecular target: 3×HA-tagged KRAS (KRAS-4B) (UniProt P01116); test: affinity purification with mass spectrometry

binding, binds:
Ras-related protein RAB6A (from UniProt P20340 1-208), Ras-related protein RAB7A (from UniProt P51149 1-207), Ras-related protein RAB11A (from UniProt P62491 1-216)
